Data on eight substances can be found in paper PMC8653662, “Cytotoxicity and Immunogenicity Evaluation of Synthetic Cell-penetrating Peptides for Methotrexate Delivery” (Iranian Journal of Pharmaceutical Research : IJPR, 2021).

The data set in a line: MTX loading efficiency of peptide-MTX conjugation (UV-Vis). The class given is physicochemical. Conditions: loaded drug / added drug x 100, supernatant read at 365 nm, MTX 3 equivalent to resin, 48 h.
With “WWWWRRRR [W4R4, linear cell-penetrating peptide WWWWRRRR]”, the “MTX loading to CPPs (drug loading efficiency)” value (“MTX loading to CPPs” for short) is listed as “%97”.

“RRRRRR [R6, linear polyarginine peptide RRRRRR]”: the “MTX loading to CPPs” value was “%42”.

Take “NGRWRWRWR [linear cell-penetrating peptide …]”: the “MTX loading to CPPs” value is “%73”.

Regarding “WRWRWRNGR [linear cell-penetrating peptide …]”, the “MTX loading to CPPs” value is on record as “%72”.

Regarding “WRWNGRWRW [WRNGRWR, linear cell-penetrating peptide …]”, the “MTX loading to CPPs” value is “%95”.

As for “WKWKWKWK [[WK]4, linear cell-penetrating peptide WKWKWKWK]”, the “MTX loading to CPPs” value is on record as “%87”.

With “WRWRWRWR [[WR]4, linear cell-penetrating peptide WRWRWRWR]”, the “MTX loading to CPPs” value is reported as “%88”.

As for “WWWWKKKK [W4K4, linear cell-penetrating peptide WWWWKKKK]”, the “MTX loading to CPPs” value is on record as “%93”.
